In doi:10.1101/2021.07.23.453529:
No constants are given. Whether binding was seen depends on the method and setting. Some binding calls cover weakened binding; strength is not graded here.

Target: DARPin (Designed Ankyrin Repeat Protein) of 3TEL-rigid-DARPin
Test: crystal structure

binding: binds weakly
B1: DARPin (Designed Ankyrin Repeat Protein) of 3TEL-rigid-DARPin (designed binder)
chain: DLGKKLLEAARAGQDDEVRILMANGADVNATDNDGYTPLHLAASNGHLEIVEVLLKNGADVNASDLTGITPLHAAAATGHLEIVEVLLKHGADVNAYDNDGHTPLHLAAKYGHLEIVEVLLKHGADVNAQDKFGKTAFDISIDNGNEDLAEILQKLN
